The list shows a part of the results.
Columns and labels:
Assay in all cases: log2 fold change, soluble protein after heating vs DMSO (PISA); higher = thermal stabilisation; K562 lysate, 10 uM; active = over 0.2 and 3.5 SD of the protein, either way, in both replicates (recomputed)
nilotinib = compound: Cc1cn(-c2cc(NC(=O)c3ccc(C)c(Nc4nccc(-c5cccnc5)n4)c3)cc(C(F)(F)F)c2)cn1 [nilotinib]
Method in brief: (§1)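 Log-two fold change in thermal stability relative to solvent controls is reported from duplicates. For each sample, crude K562 extract from dounce-homogenised pellets in PBS pH 7.4 with 1 mM MgCl2, at 1 mg/mL protein, was treated with 10 μM compound for 30 min. Aliquots heated for 3 min across 48°C-58°C were pooled, brought to 0.5% NP-40 at 4°C and cleared at 21,000xg for 90 min. The supernatant was quantified by TMTpro 16plex LC-MS/MS with channel sums equalised.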

Chains of the proteins cited; added tags and fusions are not shown. Lines headed by an entry give the natural chain unless they say otherwise; changes in a name come on top.
UniProt P21796, whole entry, looked up: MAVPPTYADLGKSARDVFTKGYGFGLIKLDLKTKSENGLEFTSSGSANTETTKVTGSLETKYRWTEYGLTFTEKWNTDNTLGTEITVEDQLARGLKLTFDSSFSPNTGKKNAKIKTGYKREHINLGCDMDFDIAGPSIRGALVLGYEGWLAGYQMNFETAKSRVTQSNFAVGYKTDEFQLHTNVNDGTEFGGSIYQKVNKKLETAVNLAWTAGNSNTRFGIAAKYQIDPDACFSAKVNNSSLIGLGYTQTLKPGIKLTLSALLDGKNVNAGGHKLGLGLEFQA
UniProt P54578: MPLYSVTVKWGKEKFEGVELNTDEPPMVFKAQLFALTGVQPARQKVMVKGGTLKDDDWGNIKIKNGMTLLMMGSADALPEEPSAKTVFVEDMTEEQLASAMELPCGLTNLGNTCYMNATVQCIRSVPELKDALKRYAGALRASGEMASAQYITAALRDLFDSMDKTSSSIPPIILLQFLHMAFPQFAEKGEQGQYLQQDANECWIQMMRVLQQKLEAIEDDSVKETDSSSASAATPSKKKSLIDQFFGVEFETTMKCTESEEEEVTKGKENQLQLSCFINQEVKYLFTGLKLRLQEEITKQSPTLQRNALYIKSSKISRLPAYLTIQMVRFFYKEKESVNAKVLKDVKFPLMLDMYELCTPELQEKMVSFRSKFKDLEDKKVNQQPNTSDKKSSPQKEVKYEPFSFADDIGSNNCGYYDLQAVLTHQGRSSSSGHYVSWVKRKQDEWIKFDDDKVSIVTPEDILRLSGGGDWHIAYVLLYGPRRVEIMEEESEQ
UniProt Q9Y277: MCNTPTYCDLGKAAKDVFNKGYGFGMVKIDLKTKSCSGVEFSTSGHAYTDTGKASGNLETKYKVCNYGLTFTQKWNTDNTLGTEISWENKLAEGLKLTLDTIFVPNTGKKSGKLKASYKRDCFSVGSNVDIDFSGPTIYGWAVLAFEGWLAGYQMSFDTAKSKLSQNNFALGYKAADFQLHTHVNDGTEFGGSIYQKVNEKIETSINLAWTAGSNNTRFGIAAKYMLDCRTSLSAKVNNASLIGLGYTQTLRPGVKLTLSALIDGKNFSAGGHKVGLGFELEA
UniProt P51809, whole entry, looked up: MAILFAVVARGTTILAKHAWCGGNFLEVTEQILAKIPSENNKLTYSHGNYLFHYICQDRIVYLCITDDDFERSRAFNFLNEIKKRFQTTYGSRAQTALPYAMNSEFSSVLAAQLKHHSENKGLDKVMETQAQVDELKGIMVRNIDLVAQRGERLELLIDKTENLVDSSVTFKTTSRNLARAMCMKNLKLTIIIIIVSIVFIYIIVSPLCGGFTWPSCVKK
UniProt P51784: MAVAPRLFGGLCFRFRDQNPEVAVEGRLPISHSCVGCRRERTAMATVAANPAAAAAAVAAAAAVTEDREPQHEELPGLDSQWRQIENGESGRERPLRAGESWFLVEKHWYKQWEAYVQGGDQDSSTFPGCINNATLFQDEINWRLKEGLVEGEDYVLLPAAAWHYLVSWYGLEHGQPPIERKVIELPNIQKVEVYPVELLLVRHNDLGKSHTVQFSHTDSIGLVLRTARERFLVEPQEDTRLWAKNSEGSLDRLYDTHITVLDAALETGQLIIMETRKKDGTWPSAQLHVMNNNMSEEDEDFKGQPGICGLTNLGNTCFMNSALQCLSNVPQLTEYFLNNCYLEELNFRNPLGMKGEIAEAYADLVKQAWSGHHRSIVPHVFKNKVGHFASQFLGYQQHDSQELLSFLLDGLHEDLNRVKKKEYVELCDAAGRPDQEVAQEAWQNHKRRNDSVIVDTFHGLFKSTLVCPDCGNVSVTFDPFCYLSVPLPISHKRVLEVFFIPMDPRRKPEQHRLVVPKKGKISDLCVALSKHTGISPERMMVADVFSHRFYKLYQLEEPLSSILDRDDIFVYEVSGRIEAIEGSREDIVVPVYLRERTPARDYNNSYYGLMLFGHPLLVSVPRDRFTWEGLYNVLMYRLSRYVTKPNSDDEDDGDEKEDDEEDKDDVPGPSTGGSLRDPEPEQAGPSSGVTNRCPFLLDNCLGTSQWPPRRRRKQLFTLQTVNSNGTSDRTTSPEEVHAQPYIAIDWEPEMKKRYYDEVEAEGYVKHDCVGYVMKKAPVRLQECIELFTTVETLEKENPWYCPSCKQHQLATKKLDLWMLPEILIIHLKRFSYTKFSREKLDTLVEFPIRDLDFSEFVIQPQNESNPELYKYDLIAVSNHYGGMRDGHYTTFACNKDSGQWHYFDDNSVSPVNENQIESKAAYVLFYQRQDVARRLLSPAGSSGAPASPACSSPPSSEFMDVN
UniProt Q93009, whole entry, looked up: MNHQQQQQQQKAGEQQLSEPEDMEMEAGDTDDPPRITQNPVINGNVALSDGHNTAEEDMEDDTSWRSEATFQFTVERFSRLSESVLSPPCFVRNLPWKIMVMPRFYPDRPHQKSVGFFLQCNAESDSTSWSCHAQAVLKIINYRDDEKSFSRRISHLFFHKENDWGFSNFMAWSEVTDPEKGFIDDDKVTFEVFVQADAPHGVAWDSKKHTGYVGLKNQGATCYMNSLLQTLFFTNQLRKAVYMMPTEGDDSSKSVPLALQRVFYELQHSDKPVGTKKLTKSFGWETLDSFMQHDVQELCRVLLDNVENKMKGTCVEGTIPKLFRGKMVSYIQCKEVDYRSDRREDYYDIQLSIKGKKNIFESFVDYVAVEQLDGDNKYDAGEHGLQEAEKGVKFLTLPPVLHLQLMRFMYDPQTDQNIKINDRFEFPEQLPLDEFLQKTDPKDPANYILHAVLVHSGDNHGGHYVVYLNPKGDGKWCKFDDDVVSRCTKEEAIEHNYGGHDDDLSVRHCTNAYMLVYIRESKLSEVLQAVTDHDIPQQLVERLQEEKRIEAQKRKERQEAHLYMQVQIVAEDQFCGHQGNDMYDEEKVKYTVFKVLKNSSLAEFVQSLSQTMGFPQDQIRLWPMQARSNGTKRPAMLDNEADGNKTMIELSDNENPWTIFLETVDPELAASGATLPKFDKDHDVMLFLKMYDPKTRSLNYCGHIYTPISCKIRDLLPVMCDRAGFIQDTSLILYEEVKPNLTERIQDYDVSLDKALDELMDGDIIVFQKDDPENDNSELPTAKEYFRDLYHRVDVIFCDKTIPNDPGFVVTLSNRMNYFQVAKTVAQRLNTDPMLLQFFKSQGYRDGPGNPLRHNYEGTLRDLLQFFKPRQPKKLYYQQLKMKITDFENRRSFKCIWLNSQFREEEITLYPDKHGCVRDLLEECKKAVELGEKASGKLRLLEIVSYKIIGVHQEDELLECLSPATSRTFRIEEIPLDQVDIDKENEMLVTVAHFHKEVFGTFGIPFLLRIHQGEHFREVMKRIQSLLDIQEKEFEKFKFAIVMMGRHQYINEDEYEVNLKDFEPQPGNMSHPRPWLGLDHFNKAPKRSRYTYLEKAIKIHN
UniProt Q86UV5: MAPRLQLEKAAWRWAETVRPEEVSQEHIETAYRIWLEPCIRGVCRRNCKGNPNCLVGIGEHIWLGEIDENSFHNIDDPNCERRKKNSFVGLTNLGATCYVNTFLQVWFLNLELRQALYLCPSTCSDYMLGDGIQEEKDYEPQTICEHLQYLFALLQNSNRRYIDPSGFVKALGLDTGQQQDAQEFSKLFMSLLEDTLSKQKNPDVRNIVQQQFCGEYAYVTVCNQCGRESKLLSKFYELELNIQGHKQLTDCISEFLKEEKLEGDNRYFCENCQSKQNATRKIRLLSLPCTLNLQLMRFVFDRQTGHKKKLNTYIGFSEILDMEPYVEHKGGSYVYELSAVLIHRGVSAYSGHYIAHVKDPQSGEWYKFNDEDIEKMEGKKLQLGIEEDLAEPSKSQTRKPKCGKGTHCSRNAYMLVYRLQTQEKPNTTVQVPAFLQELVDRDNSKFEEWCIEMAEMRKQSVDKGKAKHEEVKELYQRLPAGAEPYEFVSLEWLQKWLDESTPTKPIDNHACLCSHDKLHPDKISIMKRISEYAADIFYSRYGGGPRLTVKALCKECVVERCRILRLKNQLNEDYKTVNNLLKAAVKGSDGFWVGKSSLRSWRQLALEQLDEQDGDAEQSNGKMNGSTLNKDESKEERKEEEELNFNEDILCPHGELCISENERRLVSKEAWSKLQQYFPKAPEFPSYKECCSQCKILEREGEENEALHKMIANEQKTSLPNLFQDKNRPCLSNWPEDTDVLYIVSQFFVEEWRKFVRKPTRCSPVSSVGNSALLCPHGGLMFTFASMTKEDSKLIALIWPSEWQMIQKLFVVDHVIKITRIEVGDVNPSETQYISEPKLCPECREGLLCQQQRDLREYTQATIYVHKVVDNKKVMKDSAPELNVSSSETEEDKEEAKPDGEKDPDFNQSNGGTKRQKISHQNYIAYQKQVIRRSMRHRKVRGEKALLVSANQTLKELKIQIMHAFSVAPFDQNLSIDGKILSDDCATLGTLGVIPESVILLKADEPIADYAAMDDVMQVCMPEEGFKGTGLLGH
UniProt Q9BRT2: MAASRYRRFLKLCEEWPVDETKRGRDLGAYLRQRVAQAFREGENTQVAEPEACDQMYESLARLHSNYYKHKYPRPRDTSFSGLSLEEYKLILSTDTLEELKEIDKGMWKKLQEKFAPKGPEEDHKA
UniProt Q8TEY7: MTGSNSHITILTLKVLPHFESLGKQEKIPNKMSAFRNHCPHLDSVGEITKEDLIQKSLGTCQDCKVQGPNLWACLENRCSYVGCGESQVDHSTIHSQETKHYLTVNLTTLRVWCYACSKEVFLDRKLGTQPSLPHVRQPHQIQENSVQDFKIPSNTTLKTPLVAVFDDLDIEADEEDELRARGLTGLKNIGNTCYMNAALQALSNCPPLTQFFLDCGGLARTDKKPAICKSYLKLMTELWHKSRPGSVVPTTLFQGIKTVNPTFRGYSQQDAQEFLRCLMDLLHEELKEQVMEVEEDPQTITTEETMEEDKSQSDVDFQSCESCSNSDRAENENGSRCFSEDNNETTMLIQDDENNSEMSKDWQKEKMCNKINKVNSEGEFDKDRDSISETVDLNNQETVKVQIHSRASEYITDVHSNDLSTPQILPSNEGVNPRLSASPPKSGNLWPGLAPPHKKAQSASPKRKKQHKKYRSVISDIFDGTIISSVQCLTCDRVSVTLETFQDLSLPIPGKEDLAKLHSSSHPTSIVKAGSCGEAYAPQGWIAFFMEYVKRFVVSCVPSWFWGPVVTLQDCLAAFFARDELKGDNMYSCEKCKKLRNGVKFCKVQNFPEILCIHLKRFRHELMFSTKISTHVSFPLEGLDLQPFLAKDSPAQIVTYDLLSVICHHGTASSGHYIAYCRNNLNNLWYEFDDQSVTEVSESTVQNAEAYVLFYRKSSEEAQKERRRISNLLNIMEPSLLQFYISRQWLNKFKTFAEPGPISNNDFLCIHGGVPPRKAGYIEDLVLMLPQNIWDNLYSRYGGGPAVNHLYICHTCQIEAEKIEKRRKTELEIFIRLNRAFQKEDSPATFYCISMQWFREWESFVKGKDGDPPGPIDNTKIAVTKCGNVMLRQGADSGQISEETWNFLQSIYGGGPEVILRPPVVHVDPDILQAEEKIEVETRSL
UniProt Q9UKW4: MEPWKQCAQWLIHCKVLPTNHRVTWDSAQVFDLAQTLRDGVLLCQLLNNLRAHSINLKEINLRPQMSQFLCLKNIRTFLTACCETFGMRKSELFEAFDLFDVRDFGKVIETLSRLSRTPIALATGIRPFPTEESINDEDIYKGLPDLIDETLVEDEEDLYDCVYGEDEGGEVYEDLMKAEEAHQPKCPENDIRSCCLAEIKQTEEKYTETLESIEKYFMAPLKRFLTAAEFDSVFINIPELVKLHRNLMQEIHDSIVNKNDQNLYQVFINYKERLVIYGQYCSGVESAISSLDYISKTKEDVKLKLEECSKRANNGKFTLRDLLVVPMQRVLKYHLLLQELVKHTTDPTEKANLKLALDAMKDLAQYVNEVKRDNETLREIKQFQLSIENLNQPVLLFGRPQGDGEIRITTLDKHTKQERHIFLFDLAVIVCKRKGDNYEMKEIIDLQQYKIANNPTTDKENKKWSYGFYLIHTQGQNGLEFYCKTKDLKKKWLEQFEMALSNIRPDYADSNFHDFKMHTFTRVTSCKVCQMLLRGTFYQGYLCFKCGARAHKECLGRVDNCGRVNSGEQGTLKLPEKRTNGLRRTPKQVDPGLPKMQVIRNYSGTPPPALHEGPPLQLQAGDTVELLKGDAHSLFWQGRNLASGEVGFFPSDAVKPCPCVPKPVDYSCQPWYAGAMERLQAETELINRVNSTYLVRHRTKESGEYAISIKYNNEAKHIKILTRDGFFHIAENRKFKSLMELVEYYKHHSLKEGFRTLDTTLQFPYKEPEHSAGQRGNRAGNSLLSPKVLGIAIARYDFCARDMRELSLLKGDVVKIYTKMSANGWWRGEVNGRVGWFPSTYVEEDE
UniProt Q9UDW1: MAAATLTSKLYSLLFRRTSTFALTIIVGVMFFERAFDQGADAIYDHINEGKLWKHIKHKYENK

[1] = compound: Cc1nc(Nc2n[nH]c3c2CN(C(=O)N[C@H](CN(C)C)c2ccccc2)C3(C)C)c2sccc2n1
Method in brief: as §1

dasatinib = compound: Cc1nc(Nc2ncc(C(=O)Nc3c(C)cccc3Cl)s2)cc(N2CCN(CCO)CC2)n1 [dasatinib]
Method in brief: as §1

[2] = compound: Cc1ncc(-c2ccnc(Nc3ccc(S(C)(=O)=O)cc3)n2)n1C(C)C
Method in brief: as §1

[3] = compound: Cn1cc(-c2ccc3c(c2)CCN3C(=O)Cc2cccc(C(F)(F)F)c2)c2c(N)ncnc21
Method in brief: as §1

quisinostat = compound: Cn1cc(CNCC2CCN(c3ncc(C(=O)NO)cn3)CC2)c2ccccc21 [quisinostat]
Method in brief: as §1

tipifarnib = compound: Cn1cncc1[C@@](N)(c1ccc(Cl)cc1)c1ccc2c(c1)c(-c1cccc(Cl)c1)cc(=O)n2C [tipifarnib]
Method in brief: as §1

[4] = compound: NC(=O)Nc1cc(-c2cccc(F)c2)sc1C(=O)N[C@H]1CCCNC1
Method in brief: as §1

[5] = compound: NC(=O)c1cnc(N[C@@H]2CCCC[C@@H]2N)nc1Nc1cccc(-n2nccn2)c1
Method in brief: as §1

[6] = compound: NC1(c2ccc(-c3nc4ccn5c(=O)[nH]nc5c4cc3-c3ccccc3)cc2)CCC1
Method in brief: as §1

[7] = compound: NCC(=O)Nc1ccc(-n2nc(C(F)(F)F)cc2-c2ccc3c(ccc4ccccc43)c2)cc1
Method in brief: as §1

vorinostat = compound: O=C(CCCCCCC(=O)Nc1ccccc1)NO [vorinostat]
Method in brief: as §1

silmitasertib = compound: O=C(O)c1ccc2c(c1)nc(Nc1cccc(Cl)c1)c1ccncc12 [silmitasertib]
Method in brief: as §1

[8] = compound: O=C1NC(=O)C(c2cnc3ccccn23)=C1c1cn2c3c(cc(F)cc13)CN(C(=O)N1CCCCC1)CC2
Method in brief: as §1

entospletinib = compound: c1cn2cc(-c3ccc4cn[nH]c4c3)nc(Nc3ccc(N4CCOCC4)cc3)c2n1 [entospletinib]
Method in brief: as §1

Row | Target | log2 fold change (nilotinib) | log2 fold change [1] | log2 fold change (dasatinib) | log2 fold change [2] | log2 fold change [3] | log2 fold change (quisinostat) | log2 fold change (tipifarnib) | log2 fold change [4] | log2 fold change [5] | log2 fold change [6] | log2 fold change [7] | log2 fold change (vorinostat) | log2 fold change (silmitasertib) | log2 fold change [8] | log2 fold change (entospletinib)
1 | UMPS (UniProt P11172) | inactive: 0.005 | inactive: 0.007 | inactive: -0.01 | inactive: 0 | inactive: 0.024 | inactive: -0.028 | inactive: 0.01 | inactive: 0.001 | inactive: 0.002 | inactive: -0.004 | inactive: -0.044 | inactive: 0.016 | inactive: 0.027 | inactive: -0.016 | inactive: 0.018
2 | VDAC1 (UniProt P21796) | inactive: 0.041 | inactive: -0.003 | inactive: 0.004 | inactive: 0.033 | inactive: -0.018 | inactive: -0.024 | inactive: 0 | inactive: 0.003 | inactive: -0.01 | inactive: 0.016 | inactive: 0.015 | inactive: 0.148 | inactive: -0.019 | inactive: 0.007 | inactive: -0.005
3 | USP14 (UniProt P54578) | inactive: 0.004 | inactive: -0.025 | inactive: 0.035 | inactive: -0.013 | inactive: 0.019 | inactive: 0.032 | inactive: 0.013 | inactive: -0.011 | inactive: 0.014 | inactive: -0.003 | inactive: 0.022 | inactive: 0.06 | inactive: -0.005 | inactive: 0.004 | inactive: -0.01
4 | VDAC3 (UniProt Q9Y277) | inactive: 0.051 | inactive: -0.022 | inactive: -0.018 | inactive: 0.005 | inactive: -0.019 | inactive: -0.012 | inactive: 0.032 | inactive: 0.006 | inactive: -0.031 | inactive: 0.015 | inactive: 0.007 | inactive: 0.101 | inactive: -0.026 | inactive: -0.011 | inactive: 0.012
5 | UNC13B isoform 2 (UniProt O14795) | inactive: 0.053 | inactive: 0.088 | inactive: -0.089 | inactive: -0.109 | inactive: 0.102 | inactive: -0.033 | inactive: 0.152 | inactive: 0.011 | inactive: -0.068 | inactive: 0.021 | inactive: -0.058 | inactive: 0.214 | inactive: 0.108 | inactive: 0.012 | inactive: -0.066
6 | USP19 isoform 6 (UniProt O94966) | inactive: 0.014 | inactive: 0.01 | inactive: 0 | inactive: -0.007 | inactive: 0.009 | inactive: -0.001 | inactive: 0.033 | inactive: 0.006 | inactive: 0.006 | inactive: 0.002 | inactive: 0.033 | inactive: -0.121 | inactive: -0.024 | inactive: 0.001 | inactive: -0.045
7 | UVRAG (UniProt Q9P2Y5) | inactive: -0.079 | inactive: -0.008 | inactive: 0.004 | inactive: -0.008 | inactive: -0.05 | inactive: -0.017 | inactive: 0 | inactive: 0.025 | inactive: -0.016 | inactive: 0.057 | inactive: -0.036 | inactive: -0.106 | inactive: 0.058 | inactive: -0.002 | inactive: 0.031
8 | VAMP7 (UniProt P51809) | inactive: 0.012 | inactive: -0.025 | inactive: -0.007 | inactive: -0.057 | inactive: 0.007 | inactive: -0.015 | inactive: 0 | inactive: -0.017 | inactive: 0.009 | inactive: 0.02 | inactive: 0 | inactive: -0.103 | inactive: 0.029 | inactive: -0.044 | inactive: 0.01
9 | USP11 (UniProt P51784) | inactive: 0.01 | inactive: 0.015 | inactive: 0.001 | inactive: -0.026 | inactive: -0.007 | inactive: -0.028 | inactive: -0.014 | inactive: 0.055 | inactive: 0.028 | inactive: 0.01 | inactive: 0.052 | inactive: -0.123 | inactive: 0.057 | inactive: 0.015 | inactive: 0.038
10 | VAPA (UniProt Q9P0L0) | inactive: -0.017 | inactive: -0.008 | inactive: 0.031 | inactive: 0.003 | inactive: 0.08 | inactive: 0.201 | inactive: 0.033 | inactive: -0.065 | inactive: 0.008 | inactive: 0.081 | inactive: -0.031 | inactive: 0.075 | inactive: 0.025 | inactive: -0.014 | inactive: 0.033
11 | USE1 (UniProt Q9NZ43) | inactive: -0.019 | inactive: 0.038 | inactive: 0.068 | inactive: 0.057 | inactive: 0.02 | inactive: 0.08 | inactive: -0.021 | inactive: 0.029 | inactive: -0.027 | inactive: 0.025 | inactive: -0.113 | inactive: -0.029 | inactive: 0.028 | inactive: 0.053 | inactive: -0.036
12 | UIMC1 (UniProt Q96RL1) | inactive: -0.004 | inactive: -0.021 | inactive: -0.002 | inactive: -0.072 | inactive: -0.022 | inactive: 0.012 | inactive: 0.071 | inactive: -0.012 | inactive: -0.017 | inactive: 0.002 | inactive: 0.044 | inactive: -0.048 | inactive: -0.005 | inactive: 0.004 | inactive: -0.009
13 | USP7 (UniProt Q93009) | inactive: 0.002 | inactive: -0.002 | inactive: -0.038 | inactive: -0.018 | inactive: 0.019 | inactive: -0.012 | inactive: 0.001 | inactive: 0.03 | inactive: 0.007 | inactive: -0.016 | inactive: 0.009 | inactive: -0.18 | inactive: 0.011 | inactive: -0.019 | inactive: 0.014
14 | UGGT2 (UniProt Q9NYU1) | inactive: -0.01 | inactive: -0.09 | inactive: 0.003 | inactive: -0.116 | inactive: -0.039 | inactive: 0.011 | inactive: -0.051 | inactive: 0.017 | inactive: 0.009 | inactive: 0.017 | inactive: -0.037 | inactive: 0.091 | inactive: -0.01 | inactive: -0.002 | inactive: -0.035
15 | USP48 (UniProt Q86UV5) | inactive: -0.016 | inactive: -0.045 | inactive: -0.016 | inactive: -0.032 | inactive: 0.005 | inactive: 0.19 | inactive: 0.033 | inactive: -0.077 | inactive: 0.005 | inactive: -0.012 | inactive: -0.054 | active: -0.528 | inactive: 0.07 | inactive: 0.034 | inactive: -0.102
16 | UGCG (UniProt Q16739) | inactive: 0.036 | inactive: -0.076 | inactive: 0.046 | inactive: 0.004 | inactive: -0.03 | inactive: 0.107 | inactive: -0.046 | inactive: -0.016 |  | inactive: -0.006 | inactive: 0.057 | inactive: 0.114 | inactive: -0.013 | inactive: -0.056 | 
17 | UQCC2 (UniProt Q9BRT2) | inactive: -0.018 | inactive: -0.006 | inactive: 0.002 | inactive: 0.012 | inactive: -0.001 | inactive: 0 | inactive: 0.058 | inactive: -0.076 | inactive: -0.005 | inactive: 0.018 | inactive: -0.019 | inactive: 0.121 | inactive: -0.021 | inactive: -0.06 | inactive: -0.039
18 | USP33 (UniProt Q8TEY7) | inactive: 0.123 | inactive: -0.047 | inactive: -0.194 | inactive: -0.172 | inactive: 0.143 | inactive: 0 | inactive: -0.287 | inactive: -0.078 |  |  |  |  |  | inactive: 0.345 | 
19 | VAV3 isoform 4 (UniProt Q9UKW4) | inactive: 0.155 | inactive: -0.028 | inactive: -0.061 | inactive: -0.055 | inactive: 0.08 | inactive: 0.121 | inactive: -0.012 | inactive: -0.017 | inactive: -0.054 | inactive: 0.038 | inactive: 0.128 | inactive: -0.358 | inactive: 0.148 | inactive: -0.115 | inactive: 0.295
20 | UNC119 (UniProt Q13432) | inactive: 0.02 | inactive: 0.01 | inactive: -0.171 | inactive: 0.016 | inactive: -0.033 | inactive: -0.056 | inactive: 0.061 | inactive: 0.137 |  | inactive: -0.074 |  | inactive: -0.096 | inactive: 0.084 | inactive: 0.073 | 
21 | USP12 (UniProt O75317) | inactive: 0.204 | inactive: 0.072 |  | inactive: 0.076 |  | inactive: -0.199 | inactive: -0.077 | inactive: -0.002 | inactive: -0.146 | inactive: 0.087 | inactive: -0.053 | inactive: -0.121 | inactive: 0.043 | inactive: -0.068 | inactive: -0.026
22 | UQCR10 (UniProt Q9UDW1) | inactive: 0.015 | inactive: 0.001 | inactive: 0.05 | inactive: 0.022 | inactive: -0.096 | inactive: -0.001 | inactive: 0.038 | inactive: -0.006 | inactive: -0.066 | inactive: -0.013 | inactive: -0.016 | inactive: 0.117 | inactive: -0.033 | inactive: -0.016 | inactive: 0.009

Single records (already shown). Order of values: log2 fold change (nilotinib) | log2 fold change [1] | log2 fold change (dasatinib) | log2 fold change [2] | log2 fold change [3] | log2 fold change (quisinostat) | log2 fold change (tipifarnib) | log2 fold change [4] | log2 fold change [5] | log2 fold change [6] | log2 fold change [7] | log2 fold change (vorinostat) | log2 fold change (silmitasertib) | log2 fold change [8] | log2 fold change (entospletinib)
UQCR10 (UniProt Q9UDW1) as listed: inactive: 0.015 | inactive: 0.001 | inactive: 0.05 | inactive: 0.022 | inactive: -0.096 | inactive: -0.001 | inactive: 0.038 | inactive: -0.006 | inactive: -0.066 | inactive: -0.013 | inactive: -0.016 | inactive: 0.117 | inactive: -0.033 | inactive: -0.016 | inactive: 0.009
UMPS (UniProt P11172) as listed: inactive: 0.005 | inactive: 0.007 | inactive: -0.01 | inactive: 0 | inactive: 0.024 | inactive: -0.028 | inactive: 0.01 | inactive: 0.001 | inactive: 0.002 | inactive: -0.004 | inactive: -0.044 | inactive: 0.016 | inactive: 0.027 | inactive: -0.016 | inactive: 0.018
